# According to PubChem BioAssay AID1508600 (Functional Genomics Laboratory (NCATS/FGL), 2020):
# The whole screen tested about 53,000 sequences, of which about 3,700 (7%) were called active.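 How the source made its calls: active means gene knockdowns whose robust z-score for IL-1 alpha signal is at least 2 or at most -2, so actives lie on both sides; inactive means the rest.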 Some of the results follow.
# Assay: Components of the Cytosolic LPS Sensing Pathway: Gene Identification via Genome-wide siRNA Screen;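 further: robust z of the log signal after scaling to non-targeting control siRNA wells of the plate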
# Details: RAW264.7 macrophages, IL-1a HTRF, actives lie on both sides, screened at 100 nM (by protocol), cells primed 5 h with Pam3CSK4 first
# In short: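 IL-1a HTRF of supernatants after 24 hour LipidA transfection of Pam3CSK4-primed (5 hours) RAW264.7 cells, 48h post-siRNA transfection (100 nM). Scores: percent of plate negative-control median, then log-based robust z-score.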
row,Sequence,z-score
1,GGGCUUAUUCUCAGUUCUGTT against Slc17a1,inactive: -0.395
2,GGCUAAUGAUCAGGAUAUUTT against Cdh8,inactive: 1.7
3,GCAAUAAAGCUCCUUCCAUTT against Ctrc,inactive: 1.68
4,GCACACACUGCUACGAUGGTT against Cd177,inactive: 0.322
5,CCUAUGCAUCAGACCUUUGTT against Nedd9,active: 2.7
6,CCUGCUCCUUACAUCUCGCTT against Foxred2,inactive: 1.51
7,GGUGUCUGAAUUUGUGGCUTT against Abtb1,inactive: -0.562
8,GCAUACAAAUGCACAUUGATT against Lsg1,active: 2.69
9,GGAGAAAUGUCAGUGCGAUTT against Mlc1,inactive: 0.431
10,GGCUUUCUUUUGGAAGCUCTT against Frrs1,inactive: -0.805
11,CCUACAAAAUCUUUCCCAATT against Ero1b,inactive: -0.741
12,GCGAGCUCAGAUCAAAUAGTT against Acsl3,inactive: 1.7
13,GGUAUGGAAGACAAAACCUTT against Nlrp1a,inactive: 0.61
14,GGUCAACUCUACCAUAUCATT against Tnfsf8,inactive: -0.66
15,GGAUAAAGUUUAAGGAUGGTT against Vmn1r40,inactive: -0.43
16,GGAGAGAACAUUGAACAAATT against Ssx2ip,inactive: 0.782
17,GGGCUUUCUAUGCUGGAGGTT against Atp8b3,inactive: 0.0965
18,AUGCAGUCAGAGACAGACCTT against Gm5168,inactive: -0.21
19,GGUGUCUGCUUCUUCAAAGTT against Slc25a26,active: -2.33
20,GGAAAUAGACGCAAAAAUATT against Chsy3,inactive: 0.593
21,GGGACAUUUUCUUCUUUAUTT against Gch1,inactive: 0.703
22,GGUUGGUUAAUCCAACCAGTT against Fpr3,inactive: 1.14
23,GCAUUGUGAUGACCACCUGTT against Slc10a1,inactive: -1.45

# Six records picked at random from those above, as already listed:
row,Sequence,z-score
2,GGCUAAUGAUCAGGAUAUUTT against Cdh8,inactive: 1.7
4,GCACACACUGCUACGAUGGTT against Cd177,inactive: 0.322
13,GGUAUGGAAGACAAAACCUTT against Nlrp1a,inactive: 0.61
12,GCGAGCUCAGAUCAAAUAGTT against Acsl3,inactive: 1.7
16,GGAGAGAACAUUGAACAAATT against Ssx2ip,inactive: 0.782
14,GGUCAACUCUACCAUAUCATT against Tnfsf8,inactive: -0.66

# Carrying on:

row,Sequence,z-score
1,GUUAACCCUGAGCCUAAACTT against Spata3,inactive: 0.356
2,GGAGGAGGCAGAAACAACATT against Tex46,inactive: 1.87
3,GGAAUUUUAGCCAAGACAATT against Bbs4,inactive: -0.221
4,GGGAAGGAUGACCUAACAATT against Gpatch4,inactive: -0.839
5,GCCCAAACUAAAUAAAGGATT against Il1r2,inactive: 0.153
6,GCCAAAAACGAUGAAAUGUTT against Phf11d,inactive: -0.801
7,GCUCAUCGGAGAGUUCUAUTT against Ube2h,inactive: 0.594
8,CCUAAUGGAAGGGAAGCCATT against Cox19,active: -2.06
9,GGGAAAUCACAAUUCCUUATT against Mcm9,inactive: 0.664
10,CCCUGCUUAACAAACCAACTT against Ggcx,inactive: 0.197
11,GCCUUAUAUAGCAACAUACTT against Slc25a3,inactive: 0.285
12,GAAAUGAGUCCUUGAAAAGTT against Olfr127,inactive: -0.0661
13,GCUGUGGUGUUAGAAAUAATT against Samt3,inactive: 0.306
14,GCAGUUUGGUGAAUCCAGCTT against Nsun6,inactive: 0.437
15,CCAAGAAUGACGAUUGCUCTT against Synm,inactive: 0.543
16,GGACAAAGGCUGUAUUUUCTT against Tgm3,inactive: -1.07
17,CCACUUUUUUAGAUCCCUGTT against Usb1,inactive: -1.3
18,CCAUGUUACAUGAAAUAGUTT against Phf21a,inactive: 0.148
19,GGAUAUCCAAGUAAGGUGUTT against Mrpl9,inactive: -0.504
20,GCAAAAGUAUCUACUGGCGTT against Clec1b,inactive: 0.546
21,CCGAAGCUUUAUCUUCUAUTT against Pkd2,inactive: -0.719
22,GGAUGGGUUUGAUCUUAAUTT against Il13ra2,inactive: 0.519
23,CCUCUGUUGGUCGUAAAGCTT against Zc4h2,inactive: -1.54

row,Sequence,z-score
1,GGAUAAGGGACAAAAACCCTT against Krba1,inactive: -1.69
2,GGUAGACUCUAGAUUAAGATT against Srrm2,inactive: -0.58
3,GGUCAAAGAACAAAAAGAATT against Muc13,inactive: -0.176
4,GCGAGAUGGAAGGAUCUUGTT against Anapc13,active: 5.28
5,GGCCAAGUAGCCAUGGGAUTT against Lyl1,inactive: -0.124
6,GGAAUAGUAACUCUUUCUCTT against Ehbp1l1,inactive: -0.0157
7,GCUUAUUUGAAGUCUCAUGTT against Cpa5,inactive: -0.625
8,AUUGCAUUCCUCCAGACUGTT against Xlr4c,inactive: 0.865
9,GGCCAUCCAUUGAAGACAUTT against Stk-ps2,inactive: 1.05
10,GGUCCUAGACUGGUGUCAUTT against Adat2,inactive: 0.964
11,CCGGCACACCAUUGAUUUCTT against 4931428F04Rik,inactive: -1.73
12,GGAAACACUAAAGUCAUUUTT against Gabrg1,inactive: 0.823
13,CCGAGGACUAUUUGAAACGTT against Mrtfa,inactive: -1.46
14,GGGUGUUGUGUCCUCUCAATT against Gckr,inactive: 0.0744
15,GGUAAAUCAAAUCACUGCCTT against Slamf1,inactive: 0.316
16,CGUAGGUUGUAAUGGUGGCTT against BC051665,inactive: 1.19
17,GGGAAUUAGAUGUGUGUAUTT against Dpp6,inactive: -0.237
18,GGGAUAUUCACUUUUGUAGTT against Arnt,inactive: -1.42
19,GGGAUACUACUUUCUAACATT against Rspo3,inactive: 1.29
20,CCUCAUAGAAUGAACAUGATT against Timp3,inactive: -0.718
21,GCCAUUUCUUAUCAAGUGGTT against Laptm4a,active: -2.63
22,GCGGUUUCUCCUUGGUAAATT against Ankmy1,inactive: 0.15
23,GGGACGUGAACAGCUAAAGTT against Vipas39,inactive: 0.516
